PubChem BioAssay AID1259254 – NCATS, 2017
Here is one part, drawn at random, of about 59,000 reagents tested. About 1,550 of all reagents (2.6%) count as active. 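G2 share is only a proxy for re-replication; each gene was hit by three separate siRNAs, and active genes were retested.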 Raw values are not corrected between plates. Entries without a mark were called inactive. Reagents against one gene are numbered here. The record does not give: the amount of reagent.

- Purpose: 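Gene knock-downs that lead to re-replication, shown by excess G2 DNA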 (primary screen)
- System: human HCT116 colorectal cancer cells
- Reagents: single siRNA against human genes
- Duration: 3 days
- Detection: 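Imaged Hoechst DNA stain sorts each cell into a cycle phase by DNA amount; per plate, G2 fraction set to 0% for non-targeting and 100% for GMNN siRNA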
- Scale: G2 robust z-score and G2 cells, % of GMNN control: higher = more G2 cells, more excess DNA replication; raw share of cells in G2: higher = larger share of cells with G2 DNA content
- Call rule: 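An siRNA counts as active if its G2 robust z-score lies at least 5 MADs above the screen median; here such calls match roughly 38% of GMNN control or more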

gene knocked down | reagent | G2 robust z-score | G2 cells, % of GMNN control | raw share of cells in G2 (%)
PXDC1 | 1 | -0.255 | 1.17 | 4
PXDC1 | 2 | -0.694 | -1.92 | 2.47
PXDC1 | 3 | 0.996 | 9.98 | 6.38
WFIKKN1 | 1 | 4.58 | 35.2 | 22
WFIKKN1 | 2 | 7.08 (active) | 52.8 | 24.4
WFIKKN1 | 3 | -1.17 | -5.23 | 2.72
FBXO6 | 1 | -0.383 | 0.27 | 6.29
FBXO6 | 2 | 0.314 | 5.18 | 5.91
FBXO6 | 3 | 1.71 | 15 | 8.9
RELL2 | 1 | 0.897 | 9.28 | 7.02
RELL2 | 2 | -0.439 | -0.122 | 3
RELL2 | 3 | 0.103 | 3.69 | 4.39

Sorted by “G2 cells, % of GMNN control” (high to low): 2 of the entries above
gene knocked down | reagent | G2 robust z-score | G2 cells, % of GMNN control | raw share of cells in G2 (%)
WFIKKN1 | 2 | 7.08 (active) | 52.8 | 24.4
WFIKKN1 | 3 | -1.17 | -5.23 | 2.72

The listing continues.
gene knocked down | reagent | G2 robust z-score | G2 cells, % of GMNN control | raw share of cells in G2 (%)
F9 | 1 | 0.369 | 5.57 | 7.5
F9 | 2 | 2.8 | 22.6 | 12.9
F9 | 3 | 0.588 | 7.1 | 6.56
NMRK2 | 1 | 0.182 | 4.25 | 5.04
NMRK2 | 2 | 1.5 | 13.5 | 9.8
NMRK2 | 3 | -1.44 | -7.17 | 2.58
PRH1 | 1 | 4.17 | 32.3 | 18.7
PRH1 | 2 | -0.0152 | 2.86 | 5.35
PRH1 | 3 | -0.243 | 1.26 | 3.81
PDXK | 1 | 1.81 | 15.7 | 10.5
PDXK | 2 | 0.828 | 8.79 | 8.39
PDXK | 3 | 1.66 | 14.6 | 8.37
ZAP70 | 1 | 0.39 | 5.71 | 7.36
ZAP70 | 2 | 0.999 | 9.99 | 8.83
ZAP70 | 3 | -0.156 | 1.87 | 4.28
LRFN5 | 1 | -0.932 | -3.59 | 2.63
LRFN5 | 2 | 1.77 | 15.4 | 7.67
LRFN5 | 3 | 1.69 | 14.8 | 8.24
